Data source: PubChem BioAssay AID1159600 (NIAID, 2016)
The whole screen tested 756 reagents; below is an unselected part. In the full data, 134 (18%) are marked active. 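Active includes both reduced and increased reporter signal, though most active siRNAs reduce it; R848 dose unknown.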 Reagents against one gene are numbered here. Not stated in the record: the amount of reagent.

Aim: 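Which TLR pathway genes support TNF promoter activation by R848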 (primary screen)
Cell system: human THP-1 TNF reporter clone B5, made macrophage-like with PMA
Reagents: single siRNA against human genes
Timing: 4 h ligand stimulation, assayed 48 to 72 h after siRNA transfection
Treatment: R848 (TLR7/8 agonist) for 4 hours before lysis; dose not given
Detection: 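Robust z-score of firefly over renilla TNF promoter signal after 4 h R848, plate median/MAD normalised, relative to negative controls, averaged across replicates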
Scale: TNF reporter z-score: higher = stronger TNF promoter reporter signal after R848
Rule for the call: 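siRNAs graded by distance of mean z-score from zero in steps of 1, 1.5, 2 and 2.5; active calls sit at roughly -1.5 or below, or 1.5 or above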
Meaning of the calls: active = strong change in TNF reporter (up or down); inactive = little change

What is on record for NFKBIA #1?
TNF reporter z-score: -0.505; Outcome: inactive

How did the screen score NFKBIA #2?
TNF reporter z-score: -0.51; Outcome: inactive

Which result is listed for NFKBIA #3?
TNF reporter z-score: 2.12; Outcome: active

With NFKBIA #4, what does the deposit list?
TNF reporter z-score: -1.72; Outcome: active

What did the screen give for NFKBIA #5?
TNF reporter z-score: -1.72; Outcome: active

For NFKBIA #6, how do the results read?
TNF reporter z-score: -0.364; Outcome: inactive

What is on record for CASP8 #1?
TNF reporter z-score: -0.337; Outcome: inactive

What did the screen give for CASP8 #2?
TNF reporter z-score: -1.27; Outcome: inactive

What is on record for CASP8 #3?
TNF reporter z-score: -0.553; Outcome: inactive

What is on record for CASP8 #4?
TNF reporter z-score: -0.51; Outcome: inactive

For CASP8 #5, what was measured?
TNF reporter z-score: -0.613; Outcome: inactive

For CASP8 #6, how do the results read?
TNF reporter z-score: -0.672; Outcome: inactive

Which result is listed for JUN #1?
TNF reporter z-score: -0.754; Outcome: inactive

With JUN #2, what does the deposit list?
TNF reporter z-score: -1; Outcome: inactive

Which result is listed for JUN #3?
TNF reporter z-score: 0.341; Outcome: inactive

What did the screen give for JUN #4?
TNF reporter z-score: -0.0728; Outcome: inactive

What is on record for JUN #5?
TNF reporter z-score: 0.595; Outcome: inactive

What did the screen give for JUN #6?
TNF reporter z-score: -2.33; Outcome: active

For IRF3 #1, what was measured?
TNF reporter z-score: -2.49; Outcome: active

What is on record for IRF3 #2?
TNF reporter z-score: -0.779; Outcome: inactive

With IRF3 #3, how do the results read?
TNF reporter z-score: -1.11; Outcome: inactive

For IRF3 #4, what does the deposit list?
TNF reporter z-score: 0.374; Outcome: inactive

What is on record for IRF3 #5?
TNF reporter z-score: -1.34; Outcome: inactive

With IRF3 #6, what does the deposit list?
TNF reporter z-score: -1.39; Outcome: inactive

How did the screen score PIK3CG #1?
TNF reporter z-score: -0.51; Outcome: inactive

For PIK3CG #2, what does the deposit list?
TNF reporter z-score: -0.79; Outcome: inactive

With PIK3CG #3, how do the results read?
TNF reporter z-score: -0.126; Outcome: inactive

What did the screen give for PIK3CG #4?
TNF reporter z-score: -0.392; Outcome: inactive

Which result is listed for PIK3CG #5?
TNF reporter z-score: 0.33; Outcome: inactive

What is on record for PIK3CG #6?
TNF reporter z-score: -1.16; Outcome: inactive

For NFKB2 #1, what was measured?
TNF reporter z-score: -0.0609; Outcome: inactive

With NFKB2 #2, what does the deposit list?
TNF reporter z-score: -0.322; Outcome: inactive

How did the screen score NFKB2 #3?
TNF reporter z-score: 0.0476; Outcome: inactive

How did the screen score NFKB2 #4?
TNF reporter z-score: -0.506; Outcome: inactive

With NFKB2 #5, what does the deposit list?
TNF reporter z-score: -1.6; Outcome: active

Which result is listed for NFKB2 #6?
TNF reporter z-score: 0.348; Outcome: inactive

Which result is listed for CD14 #1?
TNF reporter z-score: -0.325; Outcome: inactive

How did the screen score CD14 #2?
TNF reporter z-score: -0.446; Outcome: inactive

For CD14 #3, what was measured?
TNF reporter z-score: 1.85; Outcome: active

For CD14 #4, what does the deposit list?
TNF reporter z-score: -2.07; Outcome: active

What is on record for CD14 #5?
TNF reporter z-score: 1.5; Outcome: inactive

With CD14 #6, what does the deposit list?
TNF reporter z-score: 0.0398; Outcome: inactive

What is on record for PIK3CA #1?
TNF reporter z-score: 0.164; Outcome: inactive

What is on record for PIK3CA #2?
TNF reporter z-score: 0.645; Outcome: inactive

What did the screen give for PIK3CA #3?
TNF reporter z-score: -0.908; Outcome: inactive

For PIK3CA #4, what was measured?
TNF reporter z-score: -0.232; Outcome: inactive

What is on record for PIK3CA #5?
TNF reporter z-score: -0.371; Outcome: inactive

For PIK3CA #6, what does the deposit list?
TNF reporter z-score: -0.411; Outcome: inactive
